Sequences of proteins named here, by UniProt entry; tags and fusion partners are left off.
UniProt P51532: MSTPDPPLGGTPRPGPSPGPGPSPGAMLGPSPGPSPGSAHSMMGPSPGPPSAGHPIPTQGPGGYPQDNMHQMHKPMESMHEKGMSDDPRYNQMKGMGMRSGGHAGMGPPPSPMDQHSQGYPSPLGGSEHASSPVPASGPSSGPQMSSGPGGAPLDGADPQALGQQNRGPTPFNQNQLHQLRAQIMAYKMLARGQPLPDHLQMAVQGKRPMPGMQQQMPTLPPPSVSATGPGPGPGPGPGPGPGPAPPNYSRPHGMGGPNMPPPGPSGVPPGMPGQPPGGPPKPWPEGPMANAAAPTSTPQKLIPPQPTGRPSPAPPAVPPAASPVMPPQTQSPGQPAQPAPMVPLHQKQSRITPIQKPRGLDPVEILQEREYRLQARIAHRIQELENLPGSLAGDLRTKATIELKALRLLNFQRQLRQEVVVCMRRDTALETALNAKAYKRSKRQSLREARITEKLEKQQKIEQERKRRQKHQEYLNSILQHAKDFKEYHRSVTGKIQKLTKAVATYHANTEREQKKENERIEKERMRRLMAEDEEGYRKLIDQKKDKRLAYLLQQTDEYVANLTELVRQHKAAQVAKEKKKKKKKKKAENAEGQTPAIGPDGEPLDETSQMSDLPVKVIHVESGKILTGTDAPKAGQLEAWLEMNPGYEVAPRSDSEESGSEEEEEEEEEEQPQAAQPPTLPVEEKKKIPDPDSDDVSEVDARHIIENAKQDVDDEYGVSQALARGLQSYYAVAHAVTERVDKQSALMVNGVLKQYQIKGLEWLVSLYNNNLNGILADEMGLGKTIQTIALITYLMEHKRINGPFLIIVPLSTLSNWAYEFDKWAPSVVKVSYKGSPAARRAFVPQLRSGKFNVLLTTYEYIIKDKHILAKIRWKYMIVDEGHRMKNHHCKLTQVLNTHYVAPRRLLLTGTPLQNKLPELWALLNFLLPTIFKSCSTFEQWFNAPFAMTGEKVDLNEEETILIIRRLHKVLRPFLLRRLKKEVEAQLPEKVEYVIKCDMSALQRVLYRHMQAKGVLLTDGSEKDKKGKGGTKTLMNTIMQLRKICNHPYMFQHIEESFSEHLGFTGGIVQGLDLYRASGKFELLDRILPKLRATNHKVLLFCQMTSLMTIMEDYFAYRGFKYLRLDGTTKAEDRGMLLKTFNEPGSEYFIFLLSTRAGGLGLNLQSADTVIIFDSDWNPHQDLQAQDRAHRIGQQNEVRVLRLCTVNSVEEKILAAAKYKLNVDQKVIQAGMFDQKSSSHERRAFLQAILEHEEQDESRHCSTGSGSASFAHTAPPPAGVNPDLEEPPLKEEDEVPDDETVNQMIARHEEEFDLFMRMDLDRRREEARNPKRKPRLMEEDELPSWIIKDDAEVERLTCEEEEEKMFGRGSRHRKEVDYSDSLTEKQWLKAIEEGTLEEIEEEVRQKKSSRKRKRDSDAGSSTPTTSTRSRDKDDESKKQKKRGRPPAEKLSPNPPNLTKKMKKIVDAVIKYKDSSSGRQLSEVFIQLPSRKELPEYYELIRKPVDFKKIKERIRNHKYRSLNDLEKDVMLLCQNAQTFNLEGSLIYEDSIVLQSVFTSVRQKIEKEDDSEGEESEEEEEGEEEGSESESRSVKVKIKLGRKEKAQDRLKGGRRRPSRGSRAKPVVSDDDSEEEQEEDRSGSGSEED
UniProt Q92785: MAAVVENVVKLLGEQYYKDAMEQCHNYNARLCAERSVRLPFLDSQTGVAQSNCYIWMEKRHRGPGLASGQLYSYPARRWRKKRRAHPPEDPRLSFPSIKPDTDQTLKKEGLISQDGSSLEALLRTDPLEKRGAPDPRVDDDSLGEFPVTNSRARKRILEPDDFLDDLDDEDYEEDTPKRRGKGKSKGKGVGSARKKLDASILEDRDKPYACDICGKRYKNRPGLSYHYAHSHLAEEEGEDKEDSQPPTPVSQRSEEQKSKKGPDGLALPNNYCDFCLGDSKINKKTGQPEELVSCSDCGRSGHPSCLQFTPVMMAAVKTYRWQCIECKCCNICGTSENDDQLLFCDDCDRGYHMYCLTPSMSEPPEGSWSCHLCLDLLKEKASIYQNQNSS
UniProt Q9H8M2: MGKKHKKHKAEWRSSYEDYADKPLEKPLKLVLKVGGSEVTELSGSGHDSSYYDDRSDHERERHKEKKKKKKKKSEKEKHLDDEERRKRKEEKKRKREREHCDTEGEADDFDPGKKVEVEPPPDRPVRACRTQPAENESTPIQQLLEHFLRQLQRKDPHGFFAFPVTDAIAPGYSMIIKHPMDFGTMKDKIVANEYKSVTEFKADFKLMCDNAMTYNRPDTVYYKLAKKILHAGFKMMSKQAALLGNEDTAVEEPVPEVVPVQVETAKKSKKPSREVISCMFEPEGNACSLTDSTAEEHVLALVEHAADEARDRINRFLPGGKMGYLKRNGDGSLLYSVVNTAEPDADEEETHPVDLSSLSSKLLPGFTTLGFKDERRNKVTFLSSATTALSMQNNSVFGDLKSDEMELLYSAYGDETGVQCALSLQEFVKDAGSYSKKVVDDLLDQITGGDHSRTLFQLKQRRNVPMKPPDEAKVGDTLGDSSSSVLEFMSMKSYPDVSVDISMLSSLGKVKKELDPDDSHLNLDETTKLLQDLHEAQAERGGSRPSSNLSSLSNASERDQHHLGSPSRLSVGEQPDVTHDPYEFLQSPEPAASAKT
UniProt Q9NZM4: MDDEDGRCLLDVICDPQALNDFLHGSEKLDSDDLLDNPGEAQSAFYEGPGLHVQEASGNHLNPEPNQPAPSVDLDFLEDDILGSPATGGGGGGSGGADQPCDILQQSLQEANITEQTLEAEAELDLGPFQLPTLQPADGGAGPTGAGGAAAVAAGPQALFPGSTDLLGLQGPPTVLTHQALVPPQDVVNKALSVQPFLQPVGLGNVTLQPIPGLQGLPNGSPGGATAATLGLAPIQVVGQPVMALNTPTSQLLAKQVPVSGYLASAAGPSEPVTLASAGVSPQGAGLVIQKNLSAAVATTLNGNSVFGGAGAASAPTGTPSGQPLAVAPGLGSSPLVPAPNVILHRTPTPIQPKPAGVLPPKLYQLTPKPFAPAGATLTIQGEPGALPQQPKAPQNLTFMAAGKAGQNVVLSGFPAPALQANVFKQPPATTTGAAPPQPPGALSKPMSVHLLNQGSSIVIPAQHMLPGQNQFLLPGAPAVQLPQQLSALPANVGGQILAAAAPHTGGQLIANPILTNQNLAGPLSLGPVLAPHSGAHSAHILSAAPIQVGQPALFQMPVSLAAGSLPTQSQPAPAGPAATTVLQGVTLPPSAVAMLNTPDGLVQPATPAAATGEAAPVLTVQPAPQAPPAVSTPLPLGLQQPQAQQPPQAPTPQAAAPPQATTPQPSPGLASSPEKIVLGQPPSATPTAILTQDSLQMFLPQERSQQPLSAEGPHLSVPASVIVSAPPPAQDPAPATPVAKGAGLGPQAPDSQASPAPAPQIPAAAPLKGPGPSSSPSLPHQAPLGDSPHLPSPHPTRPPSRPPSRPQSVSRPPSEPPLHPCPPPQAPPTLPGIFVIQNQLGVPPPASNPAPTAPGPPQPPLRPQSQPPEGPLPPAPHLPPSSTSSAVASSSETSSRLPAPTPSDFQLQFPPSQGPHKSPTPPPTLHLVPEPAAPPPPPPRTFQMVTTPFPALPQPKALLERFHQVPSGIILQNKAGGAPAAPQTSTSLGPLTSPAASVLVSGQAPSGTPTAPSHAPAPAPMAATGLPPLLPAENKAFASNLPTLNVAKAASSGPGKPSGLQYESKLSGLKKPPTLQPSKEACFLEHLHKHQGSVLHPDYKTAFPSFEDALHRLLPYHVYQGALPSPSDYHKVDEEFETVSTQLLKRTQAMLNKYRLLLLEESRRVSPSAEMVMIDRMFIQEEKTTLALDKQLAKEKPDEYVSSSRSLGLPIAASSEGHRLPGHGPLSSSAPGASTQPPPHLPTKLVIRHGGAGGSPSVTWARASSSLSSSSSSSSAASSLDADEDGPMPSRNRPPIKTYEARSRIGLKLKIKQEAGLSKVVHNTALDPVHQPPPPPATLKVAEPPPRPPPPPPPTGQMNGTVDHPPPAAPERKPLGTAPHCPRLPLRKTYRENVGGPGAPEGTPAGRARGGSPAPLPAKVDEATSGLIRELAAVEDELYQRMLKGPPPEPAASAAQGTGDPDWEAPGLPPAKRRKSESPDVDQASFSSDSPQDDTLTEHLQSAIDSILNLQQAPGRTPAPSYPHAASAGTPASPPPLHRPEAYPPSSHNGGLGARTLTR
UniProt Q92925: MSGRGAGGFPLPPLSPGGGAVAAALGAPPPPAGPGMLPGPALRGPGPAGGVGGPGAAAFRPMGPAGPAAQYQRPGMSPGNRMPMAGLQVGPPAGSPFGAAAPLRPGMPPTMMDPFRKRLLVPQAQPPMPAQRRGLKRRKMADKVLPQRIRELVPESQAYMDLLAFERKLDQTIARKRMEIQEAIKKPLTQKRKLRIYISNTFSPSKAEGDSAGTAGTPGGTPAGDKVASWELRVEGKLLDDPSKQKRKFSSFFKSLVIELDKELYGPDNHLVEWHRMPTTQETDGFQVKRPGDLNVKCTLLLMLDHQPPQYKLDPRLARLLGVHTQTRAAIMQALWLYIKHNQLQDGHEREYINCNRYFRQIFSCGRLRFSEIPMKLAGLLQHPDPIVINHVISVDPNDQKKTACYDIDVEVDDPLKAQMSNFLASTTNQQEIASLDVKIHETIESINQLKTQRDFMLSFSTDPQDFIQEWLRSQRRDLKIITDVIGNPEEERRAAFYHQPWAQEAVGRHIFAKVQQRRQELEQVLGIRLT
UniProt Q6STE5: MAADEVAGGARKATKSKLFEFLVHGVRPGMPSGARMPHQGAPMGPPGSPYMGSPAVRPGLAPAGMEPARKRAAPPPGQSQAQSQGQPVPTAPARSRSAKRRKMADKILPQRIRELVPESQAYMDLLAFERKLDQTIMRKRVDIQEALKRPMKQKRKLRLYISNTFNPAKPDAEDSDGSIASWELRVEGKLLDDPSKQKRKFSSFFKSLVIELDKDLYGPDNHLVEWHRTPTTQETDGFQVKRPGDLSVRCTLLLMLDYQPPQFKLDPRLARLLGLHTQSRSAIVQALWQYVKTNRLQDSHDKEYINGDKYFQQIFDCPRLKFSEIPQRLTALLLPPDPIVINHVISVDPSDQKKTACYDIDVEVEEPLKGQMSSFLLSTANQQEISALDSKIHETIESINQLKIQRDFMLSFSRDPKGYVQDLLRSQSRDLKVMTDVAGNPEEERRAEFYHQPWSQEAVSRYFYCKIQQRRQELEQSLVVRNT

According to publication PMC13237135:

B1: PHF10 (protein, UniProt Q8WUB8 1-498)
chain: MAAAAGPGAALSPRPCDSDPATPGAQSPKDDNEDNSNDGTQPSKRRRMGSGDSSRSCETSSQDLGFSYYPAENLIEYKWPPDETGEYYMLQEQVSEYLGVTSFKRKYPDLERRDLSHKEKLYLRELNVITETQCTLGLTALRSDEVIDLMIKEYPAKHAEYSVILQEKERQRITDHYKEYSQMQQQNTQKVEASKVPEYIKKAAKKAAEFNSNLNRERMEERRAYFDLQTHVIQVPQGKYKVLPTERTKVSSYPVALIPGQFQEYYKRYSPDELRYLPLNTALYEPPLDPELPALDSDGDSDDGEDGRGDEKRKNKGTSDSSSGNVSEGESPPDSQEDSFQGRQKSKDKAATPRKDGPKRSVLSKSVPGYKPKVIPNAICGICLKGKESNKKGKAESLIHCSQCENSGHPSCLDMTMELVSMIKTYPWQCMECKTCIICGQPHHEEEMMFCDMCDRGYHTFCVGLGAIPSGRWICDCCQRAPPTPRKVGRRGKNSKEG

Each molecule was assayed against SMARCA4 (BRG1) (human (endogenous in G401)) (UniProt P51532) (assay: condition: only in G401 cells re-expressing SMARCB1 W281P or I315R instead of wild type; affinity purification with mass spectrometry; as a1, the samples from G401 cells re-expressing SMARCB1 W281P or I315R compared with wild type SMARCB1 (L2FC < -1.5, p < 0.05)).

Row | Molecule | binding
1 | DPF2 (from UniProt Q92785 1-391) | no binding

These molecules were tested against SMARCA4 (BRG1) (human (endogenous in G401)) (UniProt P51532) (assay: affinity purification with mass spectrometry; SMARCA4 immunoprecipitated with BRG1 (G7) antibody cross-linked to Protein G magnetic beads from 800 ug nuclear extract of G401 cells after 48 h induction of wild type, missense (W281P, I315R) or nonsense (W281*, I315*) SMARCB1; overnight at 4 °C; on-bead digestion, LC-MS/MS, label-free quantification).

Row | Molecule | binding
2 | BRD9 (from UniProt Q9H8M2 1-597) | binds
3 | DPF2 (from UniProt Q92785 1-391) | binds
4 | GLTSCR1 (from UniProt Q9NZM4 1-1560) | binds
5 | SMARCD2 (from UniProt Q92925 1-531) | binds
6 | SMARCD3 (from UniProt Q6STE5 1-483) | binds
7 | B1 | binds

No constants are given. Whether binding was seen depends on the method and setting. Binding seen in cells or lysates may run through a third protein. A yes stands for co-enrichment or nearness to the bait. Other partners may have been found. For some of these results: No binding means not detected with the bait.
